Laboratory results: PubChem BioAssay AID1117269 (University of Michigan, 2014)
The whole screen tested 714 reagents; this is a random part of them. Of all reagents, 49 (6.9%) are marked active. 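Active means a hit in at least one line; per-line hit columns show which; some siRNA pools appear more than once.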 No sequences are given here. Not given: the amount of reagent.

Screen: 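Kinases whose silencing alters a TGF-beta responsive luciferase reporter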 (primary screen)
System: human A549 lung cancer and 1833 breast cancer (MDA-MB-231-derived) cell lines carrying a stable BTR luciferase reporter
Reagents: siRNA pool against human genes
Duration: 72 h after transfection, then 1 h TGF-beta before the read
Challenge: TGF-beta 10 ng/mL added one hour before luciferin and read-out
Read-out: 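BTR reporter bioluminescence as fold change relative to non-targeting siRNA, averaging triplicates per line; knockdown for 72 h, then TGF-beta at 10 ng/mL 1 h prior to reading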
Scale: fold over scrambled siRNA, A549 and fold over scrambled siRNA, 1833: higher = more reporter light, weaker TGF-beta receptor signalling
Active means: 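Active if a hit in A549 or 1833; a line's hit exceeds an upper quartile-based cutoff on mean log fold values, applied per plate and across the whole screen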
Calls: active = hit in at least one line; inactive = hit in neither line

gene | fold over scrambled siRNA, A549 | fold over scrambled siRNA, 1833 | hit in A549 | hit in 1833 | Call
CDKN2D | 0.635 | 1.43 | not a hit in A549 | not a hit in 1833 | inactive
IP6K2 | 1.71 | 1.9 | not a hit in A549 | not a hit in 1833 | inactive
CDK7 | 0.522 | 2.27 | not a hit in A549 | not a hit in 1833 | inactive
LATS1 | 1.33 | 1.33 | not a hit in A549 | not a hit in 1833 | inactive
NUAK2 | 1.24 | 1.74 | not a hit in A549 | not a hit in 1833 | inactive
CDKN1C | 2 | 4.25 | not a hit in A549 | not a hit in 1833 | inactive
ADCK1 | 2.76 | 1.43 | not a hit in A549 | not a hit in 1833 | inactive
AKT3 | 0.377 | 2 | not a hit in A549 | not a hit in 1833 | inactive
MELK | 0.683 | 1.74 | not a hit in A549 | not a hit in 1833 | inactive
CSNK1A1L | 1.08 | 4.1 | not a hit in A549 | not a hit in 1833 | inactive
CDK3 | 0.762 | 2.29 | not a hit in A549 | not a hit in 1833 | inactive
ERBB4 | 1.33 | 2.9 | not a hit in A549 | not a hit in 1833 | inactive
HK1 | 3.38 | 5.79 | not a hit in A549 | not a hit in 1833 | inactive
PFKL | 1.38 | 5.25 | not a hit in A549 | not a hit in 1833 | inactive
PIP5K1C | 1.71 | 2.94 | not a hit in A549 | not a hit in 1833 | inactive
NUP62 | 0.816 | 5.07 | not a hit in A549 | not a hit in 1833 | inactive
CDKN2C | 0.779 | 2.87 | not a hit in A549 | not a hit in 1833 | inactive
CDK9 | 2.29 | 5.48 | not a hit in A549 | not a hit in 1833 | inactive
GSK3A | 1.06 | 4.14 | not a hit in A549 | not a hit in 1833 | inactive
MINK1 | 3.52 | 6.13 | not a hit in A549 | not a hit in 1833 | inactive
MAP3K3 | 1 | 1.73 | not a hit in A549 | not a hit in 1833 | inactive
EIF2AK2 | 3.67 | 2.84 | not a hit in A549 | not a hit in 1833 | inactive
DLG3 | 2.74 | 4.4 | not a hit in A549 | not a hit in 1833 | inactive
STK10 | 3.25 | 4.19 | not a hit in A549 | not a hit in 1833 | inactive
THNSL1 | 3.52 | 4.9 | not a hit in A549 | not a hit in 1833 | inactive
FRK | 5.33 | 6.37 | not a hit in A549 | not a hit in 1833 | inactive
TEC | 3.26 | 1.65 | not a hit in A549 | not a hit in 1833 | inactive
STK32C | 1.76 | 2.85 | not a hit in A549 | not a hit in 1833 | inactive
KHK | 2 | 2.57 | not a hit in A549 | not a hit in 1833 | inactive
MTOR | 0.849 | 1.2 | not a hit in A549 | not a hit in 1833 | inactive
EPHA3 | 1.36 | 3.01 | not a hit in A549 | not a hit in 1833 | inactive
NEK10 | 1.06 | 1.67 | not a hit in A549 | not a hit in 1833 | inactive
CDK13 | 2.1 | 10.3 | not a hit in A549 | hit in 1833 | –
PRKCG | 2.29 | 4.78 | not a hit in A549 | not a hit in 1833 | inactive
SIK2 | 2.8 | 3.19 | not a hit in A549 | not a hit in 1833 | inactive
SBK1 | 1.19 | 6.34 | not a hit in A549 | not a hit in 1833 | inactive
AK3 | 2.1 | 2.67 | not a hit in A549 | not a hit in 1833 | inactive
EPHB1 | 1.57 | 2.11 | not a hit in A549 | not a hit in 1833 | inactive
CSNK2A2 | 0.525 | 3.3 | not a hit in A549 | not a hit in 1833 | inactive
MAST4 | 1.87 | 1.67 | not a hit in A549 | not a hit in 1833 | inactive
DGKI | 2.81 | 5.49 | not a hit in A549 | not a hit in 1833 | inactive
CDK5R2 | 1.57 | 2.6 | not a hit in A549 | not a hit in 1833 | inactive
TGFBR1 | 1.12 | 5.2 | not a hit in A549 | not a hit in 1833 | inactive
CDKN1B | 0.804 | 2.79 | not a hit in A549 | not a hit in 1833 | inactive
CSNK1E | 1.86 | 4.48 | not a hit in A549 | not a hit in 1833 | inactive
SCYL3 | 0.714 | 1.25 | not a hit in A549 | not a hit in 1833 | inactive
DGKA | 1.78 | 1.13 | not a hit in A549 | not a hit in 1833 | inactive
ABL1 | 1.61 | 2.24 | not a hit in A549 | not a hit in 1833 | inactive
ULK2 | 0.852 | 0.933 | not a hit in A549 | not a hit in 1833 | inactive
CSNK1D | 2.08 | 2.77 | not a hit in A549 | not a hit in 1833 | inactive
PIK3R2 | 0.679 | 1.2 | not a hit in A549 | not a hit in 1833 | inactive
UCKL1 | 0.952 | 1.47 | not a hit in A549 | not a hit in 1833 | inactive
CDADC1 | 1.26 | 0.952 | not a hit in A549 | not a hit in 1833 | inactive
PSKH1 | 1.26 | 2.07 | not a hit in A549 | not a hit in 1833 | inactive
PLK1 | 0.429 | 4.1 | not a hit in A549 | not a hit in 1833 | inactive
CAMK1 | 1.51 | 3.8 | not a hit in A549 | not a hit in 1833 | inactive
NME4 | 2.62 | 4.19 | not a hit in A549 | not a hit in 1833 | inactive

7 entries from above, showing only “hit in 1833”:
NUAK2	not a hit in 1833
CDKN1C	not a hit in 1833
ADCK1	not a hit in 1833
AKT3	not a hit in 1833
MELK	not a hit in 1833
CSNK1A1L	not a hit in 1833
CDK3	not a hit in 1833
